{
  "source": "paper PMC6751184",
  "about": "“Heme and hemoglobin utilization by Mycobacterium tuberculosis” (Nature Communications, 2019)",
  "target": "DppA W442A of Mycobacterium tuberculosis, lacking the predicted signal peptide (M. tuberculosis) (UniProt A5U8Y9)",
  "test": "SEC; both purified",
  "note": "No constants are given. Whether binding was seen depends on the method and setting.",
  "data": [
    {"substance": "DppA W442A of Mycobacterium tuberculosis, lacking the predicted signal peptide (from UniProt A5U8Y9 26-541)", "values": [
      {"measurement": "binding", "result": "no binding"}
    ]}
  ]
}
